Results deposited as PubChem BioAssay AID743121 (NCATS, 2013).

Purpose: 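Partners whose loss is lethal together with topoisomerase I blockade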 (primary screen)
System: MDA-MB-231 cells, a human breast cancer line
Reagent: single siRNA against human genes, 20 nM siRNA (0.8 pmol per well)
Duration: 120 h (drug added 48 h after transfection, read 72 h later)
Treatment: camptothecin 20 nM (about EC30) for 72 h; vehicle 0.1% DMSO in parallel plates
Measured: 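Cell viability by ATP luminescence (CellTiter-Glo) as % of non-targeting siRNA wells, and the log2 ratio of viability without drug over viability with camptothecin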
Scale: log2 vehicle/camptothecin viability: higher = stronger sensitisation to camptothecin; viability with camptothecin: higher = more viable cells
Units: viability with camptothecin in % of control
Hit rule: 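Each gene scored by redundant siRNA activity (RSA) over its individual siRNA ratios; a gene is called active at p < 0.001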
In all, the deposit lists about 26,000 reagents; this is an unselected part. In the full data, 167 (0.63%) were called active. 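Calls are per gene from RSA p-values that are not deposited; an individual active-marked siRNA can sensitise only weakly.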 Unmarked entries are inactive. The numbers tell different reagents against one gene apart. Further read-outs or replicates are left out here.

What is on record for DNASE1 (GeneID 1773) #1?
log2 vehicle/camptothecin viability: 0.0516; viability with camptothecin: 105

For DNASE1 (GeneID 1773) #2, what does the deposit list?
log2 vehicle/camptothecin viability: -0.121; viability with camptothecin: 47.3

What is on record for DNASE1 (GeneID 1773) #3?
log2 vehicle/camptothecin viability: -0.173; viability with camptothecin: 93.8

What did the screen give for DNASE1 (GeneID 1773) #4?
log2 vehicle/camptothecin viability: 1.09; viability with camptothecin: 14.7

For KCNE4 (GeneID 23704) #1, how do the results read?
log2 vehicle/camptothecin viability: 0.422; viability with camptothecin: 28.3

Which result is listed for KCNE4 (GeneID 23704) #2?
log2 vehicle/camptothecin viability: -0.182; viability with camptothecin: 76.9

With KCNE4 (GeneID 23704) #3, what was measured?
log2 vehicle/camptothecin viability: -0.189; viability with camptothecin: 62.8

For NMBR (GeneID 4829) #1, how do the results read?
log2 vehicle/camptothecin viability: 0.00467; viability with camptothecin: 45.5

How did the screen score NMBR (GeneID 4829) #2?
log2 vehicle/camptothecin viability: 0.0933; viability with camptothecin: 61.6

What is on record for NMBR (GeneID 4829) #3?
log2 vehicle/camptothecin viability: -0.241; viability with camptothecin: 52.1

How did the screen score NMBR (GeneID 4829) #4?
log2 vehicle/camptothecin viability: -0.293; viability with camptothecin: 78.8

How did the screen score SUV39H1 (GeneID 6839) #1?
log2 vehicle/camptothecin viability: -0.154; viability with camptothecin: 97.6

With SUV39H1 (GeneID 6839) #2, what was measured?
log2 vehicle/camptothecin viability: -0.115; viability with camptothecin: 112

With SUV39H1 (GeneID 6839) #3, what was measured?
log2 vehicle/camptothecin viability: -0.0715; viability with camptothecin: 46.8

What is on record for SUV39H1 (GeneID 6839) #4?
log2 vehicle/camptothecin viability: 0.28; viability with camptothecin: 69.7

2 of these entries in another layout.
| gene knocked down | reagent | log2 vehicle/camptothecin viability | viability with camptothecin |
| --- | --- | --- | --- |
| KCNE4 (GeneID 23704) | 1 | 0.422 | 28.3 |
| KCNE4 (GeneID 23704) | 2 | -0.182 | 76.9 |
